According to patent publication US20190248902A1:
No constants are given. Whether binding was seen depends on the method and setting. Some entries that bind do so weakly or less than the wild type.

The chains behind the UniProt entries cited, without tags or fusion partners. Where a name states a change or a piece, a line headed by the entry shows the natural chain unless it says otherwise.
UniProt P07306: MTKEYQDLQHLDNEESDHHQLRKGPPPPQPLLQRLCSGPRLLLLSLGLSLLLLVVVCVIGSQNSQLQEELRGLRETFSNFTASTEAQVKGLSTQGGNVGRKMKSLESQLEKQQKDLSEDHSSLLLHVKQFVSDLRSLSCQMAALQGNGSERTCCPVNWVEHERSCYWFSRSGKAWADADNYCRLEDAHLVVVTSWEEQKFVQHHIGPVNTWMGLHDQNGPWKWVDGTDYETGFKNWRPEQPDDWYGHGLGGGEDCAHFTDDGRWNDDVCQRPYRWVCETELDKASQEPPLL

B1: 4B1 (antibody, V domains shown)
VH: QVQLQESGPGLVKPSETLSLTCSVSGDSISSYSWSWIRQPAGKGLEWIGRIYTSGSTNYIPSLKSRITMSVDTSKKQFSLKLSSVTAADTAVYYCARDLKSSGCLFFDYWGQGTLVTVSS
VL: DIQMTQSPSSLSASVGDRVTITCRASHTIRTYLNWYQQKPGKAPKLLIYAASSLQSGVPSRINGSGSGTDFTLTITNLQPEDFATYYCQQSYNISFTFGPGTKVDIK
B2: 184E7 (antibody, V domains shown)
VH: QVQLVQSGAEVKTPGASVKVSCRASGYTFTSYNMHWVRQVPGQGLEWMGWINPNNGGSNYTQKFQGRVTMTRDTSISTAYMELSRLRSDDTAVYYCARKFGDWGQGTLVTVSS
VL: DIQMTQSPSSRSASIGERVTITCRASQGISNYLAWIQQKPGTAPKSLIYAASSLQSGVSSRFSGSGFGTDFTITISSVQREDFATYYCQQYNGYPFTFGHGTKVDIK
B3: 7F4 (antibody, V domains shown)
VH: QLQLQESGPGLVKPSETLSLTCTVSGGSISRSSYYWGWIRQPPGKGLEWIGNIYYSGATYYNPSLKSRVTISVDTSTNQFSLKLSSVTAADTAVYYCARHSGSWSLDYWGQGTLVTVSS
VL: DIQMTQSPSSLSASVGDRVTITCRTSQGIRNDLGWYQQKPGKAPKRLIYAASNLQSGVPSRFSGSGSGTEFTLTISSLQPEDFATYYCLQHSAYPLTFGGGTKVEIK
B4: 7G4 (antibody, V domains shown)
VH: QVQLVESGGGVVQPGRSLRLSCAASGFTFNNYVMHWVRQAPGKGLEWVAVIWYDGSNKYYADSVKGRFTISRDNSKNTLYLQMTSLRAEDTAVYYCAREKYSSNWYDYGMDVWGQGTTVTVSS
VL: DIQMTQSPSSLSASVGDRVTITCRASQGIRNDLGWYQQRPGKAPKRLIYAASSLQSGVPSRFSGSGSGTEFTLTISSLQPEDSATYYCLHQYSYPRTFGQGTKVEIK
B5: 56E5 (antibody, V domains shown)
VH: QVQLVQSGAEVKKPGASVKVSCQASGYTFTGYHMHWVRQAPGQGLEWMGWINPNNNATNYAQKFQGRVTMTRDTSISTAYMELRRLRSDDTAVYHCARDGTSSFDYWGQGTLVTVSS
VL: DIQMTQSPSSVSASVGDRVTITCRASQGIRKWLAWYQQKPGKAPKLLIYAASSLQSGVPSRFSGSGSGTDFTLTISSLQPEDFATYYCQQANSFPFTFGPGTKVDIK
B6: 72G9 (antibody, V domains shown)
VH: EVQLVESGGGLVKPGGSLRLSCAASGFTFSSYSMNWVRQAPGKGLEWVSSISGSSSYIYYADSVKGRFTISRDNAKNSLYLQMNSLRAEDTAVYFCARGGSRGFDPWGQGTLVTVSS
VL: DIQMTQSPSSLSASVGDRVTITCRASQSITSYLNWYQQKPGKAPKLLIYTASSLQSGVPSRFSGSGSGTDFTLTISSLQPEDFATYYCQQSHSFPFTFGPGTKVDIK
B7: 194A4 (antibody, V domains shown)
VH: QVQLVQSGTEVKKPGASLKVSCKASGYTFTVYYLNWVRQAPGQGLEWMGWINPNSGGTNYAQKFQGRVTMTRDTSISTAYMELSRLRSDDTAVYYCARGYDILTGWGQGTLVTVSS
VL: EIVLTQSPGTLSLSPGERATLSCRASRGVSNIYLAWYQQKPGQAPRLLIYGASNRATGIPDRFSGSGSGTDFTLTISRLEPEDFAVYYCQHNDYSMFTFGPGTKVDIK
B8: 48B12 (antibody, V domains shown)
VH: EVQLLESGGGLVQPGGSLRLSCAASGFTFSSYAMNWVRQAPGKGLEWVSAISGRGGNTFYADSVKGRFTISRDNSKNTLYLQMNSLRAEDTAVYYCAKRETYNWNYEGFDYWGQGTLVTVSS
VL: SYELTQPPSVSVSPGQTARITCSGDALPKKYAYWYQQKSGQAPVLVIYEDSKRPSGIPERFSGSSSGTMATLTISGAQVEDEADYYCNSTDSSGNHVVFGGGTKLTVL

target: ASGR-1 on HEPG2 Cells (human) (UniProt P07306); test: FACS or high content imaging on HepG2 cells; Y = signal at least 2x irrelevant IgG

binding, binds:
B1
B2
B3
B4
B5
B6
B7
B8
